Laboratory results from publication PMC11010364.
No constants are given. Whether binding was seen depends on the method and setting. Binding seen in cells or lysates may run through a third protein. Some binding calls cover weakened binding; strength is not graded here.

Target: T1, Follistatin-like 1 (FSTL1) (human (endogenous in A431)) (UniProt Q12841)
T1 sequence: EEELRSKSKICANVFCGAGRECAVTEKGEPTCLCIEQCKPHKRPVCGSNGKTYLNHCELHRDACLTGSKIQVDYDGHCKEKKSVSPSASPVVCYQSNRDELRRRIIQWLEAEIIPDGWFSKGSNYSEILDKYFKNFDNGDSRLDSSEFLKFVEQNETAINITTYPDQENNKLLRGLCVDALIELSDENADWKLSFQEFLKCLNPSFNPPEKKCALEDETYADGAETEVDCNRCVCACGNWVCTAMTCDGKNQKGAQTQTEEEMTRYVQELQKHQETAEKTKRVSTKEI
Assay: co-IP; A431 cell total protein in RIPA buffer with protease inhibitors; 2 µg antibody or IgG control, 4 °C overnight, Protein A/G agarose, three PBS washes; western blot

B1: Zinc Finger E-box Binding Homeobox 1 (ZEB1) (protein, UniProt P37275 1-1124)
chain: MADGPRCKRRKQANPRRNNVTNYNTVVETNSDSDDEDKLHIVEEESVTDAADCEGVPEDDLPTDQTVLPGRSSEREGNAKNCWEDDRKEGQEILGPEAQADEAGCTVKDDECESDAENEQNHDPNVEEFLQQQDTAVIFPEAPEEDQRQGTPEASGHDENGTPDAFSQLLTCPYCDRGYKRFTSLKEHIKYRHEKNEDNFSCSLCSYTFAYRTQLERHMTSHKSGRDQRHVTQSGCNRKFKCTECGKAFKYKHHLKEHLRIHSGEKPYECPNCKKRFSHSGSYSSHISSKKCISLIPVNGRPRTGLKTSQCSSPSLSASPGSPTRPQIRQKIENKPLQEQLSVNQIKTEPVDYEFKPIVVASGINCSTPLQNGVFTGGGPLQATSSPQGMVQAVVLPTVGLVSPISINLSDIQNVLKVAVDGNVIRQVLENNQANLASKEQETINASPIQQGGHSVISAISLPLVDQDGTTKIIINYSLEQPSQLQVVPQNLKKENPVATNSCKSEKLPEDLTVKSEKDKSFEGGVNDSTCLLCDDCPGDINALPELKHYDLKQPTQPPPLPAAEAEKPESSVSSATGDGNLSPSQPPLKNLLSLLKAYYALNAQPSAEELSKIADSVNLPLDVVKKWFEKMQAGQISVQSSEPSSPEPGKVNIPAKNNDQPQSANANEPQDSTVNLQSPLKMTNSPVLPVGSTTNGSRSSTPSPSPLNLSSSRNTQGYLYTAEGAQEEPQVEPLDLSLPKQQGELLERSTITSVYQNSVYSVQEEPLNLSCAKKEPQKDSCVTDSEPVVNVIPPSANPINIAIPTVTAQLPTIVAIADQNSVPCLRALAANKQTILIPQVAYTYSTTVSPAVQEPPLKVIQPNGNQDERQDTSSEGVSNVEDQNDSDSTPPKKKMRKTENGMYACDLCDKIFQKSSSLLRHKYEHTGKRPHECGICKKAFKHKHHLIEHMRLHSGEKPYQCDKCGKRFSHSGSYSQHMNHRYSYCKREAEERDSTEQEEAGPEILSNEHVGARASPSQGDSDERESLTREEDEDSEKEEEEEDKEMEELQEEKECEKPQGDEEEEEEEEEVEEEEVEEAENEGEEAKTEGLMKDDRAESQASSLGQKVGESSEQVSEEKTNEA
binding: binds
